The entries are a selection whose mix differs from that of the whole data set. For part of these data: At the low end of the ranking the order means little. Some of the results follow. For part of these data: Construct or isoform of the protein are uncertain.

Amino acid sequences for entries named in this document (tags omitted). A change or cut given only in a name is not applied to a line headed by its entry.
UniProt P32519: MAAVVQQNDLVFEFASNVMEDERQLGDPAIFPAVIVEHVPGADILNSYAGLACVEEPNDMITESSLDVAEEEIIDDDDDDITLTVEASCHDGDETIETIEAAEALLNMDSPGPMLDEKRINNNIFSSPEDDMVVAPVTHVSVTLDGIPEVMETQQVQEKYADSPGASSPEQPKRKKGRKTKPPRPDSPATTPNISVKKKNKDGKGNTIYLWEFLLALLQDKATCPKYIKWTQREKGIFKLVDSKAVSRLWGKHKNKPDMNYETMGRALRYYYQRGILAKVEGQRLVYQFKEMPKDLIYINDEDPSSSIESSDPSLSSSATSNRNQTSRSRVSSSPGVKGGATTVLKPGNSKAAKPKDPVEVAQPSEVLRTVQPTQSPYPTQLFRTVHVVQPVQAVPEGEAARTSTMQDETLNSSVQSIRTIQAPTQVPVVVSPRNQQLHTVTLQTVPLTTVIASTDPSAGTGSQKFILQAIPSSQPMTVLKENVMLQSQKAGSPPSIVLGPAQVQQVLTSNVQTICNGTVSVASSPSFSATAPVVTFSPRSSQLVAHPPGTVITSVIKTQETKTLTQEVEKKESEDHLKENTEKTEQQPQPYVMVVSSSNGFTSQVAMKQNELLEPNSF
UniProt P50549: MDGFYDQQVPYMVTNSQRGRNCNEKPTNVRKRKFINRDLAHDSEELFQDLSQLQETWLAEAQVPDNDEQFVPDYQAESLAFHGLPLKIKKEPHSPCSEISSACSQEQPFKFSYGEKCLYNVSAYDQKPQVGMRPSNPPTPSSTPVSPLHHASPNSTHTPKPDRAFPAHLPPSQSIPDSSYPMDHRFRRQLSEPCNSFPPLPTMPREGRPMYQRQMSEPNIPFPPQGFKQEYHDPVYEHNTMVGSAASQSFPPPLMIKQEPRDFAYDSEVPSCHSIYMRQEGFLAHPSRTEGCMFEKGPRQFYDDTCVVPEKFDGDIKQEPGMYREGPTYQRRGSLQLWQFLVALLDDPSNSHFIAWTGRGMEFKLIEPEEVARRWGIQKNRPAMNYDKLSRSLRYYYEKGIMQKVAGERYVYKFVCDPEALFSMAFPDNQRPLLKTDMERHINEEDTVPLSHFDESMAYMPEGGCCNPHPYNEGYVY

Test in all cases: DAPPL (digital affinity profiling via proximity ligation, sequencing)
Settings in all cases: 10 mM Tris-HCl pH 7.5, 50 mM NaCl, 1 mM DTT, 4% glycerol, room temperature, 30 min; GST-TFs on glutathione beads, 16-mer random dsDNA library, 0.1% …; high values mean tight binding; double strand, one strand shown; scale: fold enrichment (6-mer frequency, TF over GST control)

The target in one test is T1, ERG (UniProt P11308).
T1 sequence: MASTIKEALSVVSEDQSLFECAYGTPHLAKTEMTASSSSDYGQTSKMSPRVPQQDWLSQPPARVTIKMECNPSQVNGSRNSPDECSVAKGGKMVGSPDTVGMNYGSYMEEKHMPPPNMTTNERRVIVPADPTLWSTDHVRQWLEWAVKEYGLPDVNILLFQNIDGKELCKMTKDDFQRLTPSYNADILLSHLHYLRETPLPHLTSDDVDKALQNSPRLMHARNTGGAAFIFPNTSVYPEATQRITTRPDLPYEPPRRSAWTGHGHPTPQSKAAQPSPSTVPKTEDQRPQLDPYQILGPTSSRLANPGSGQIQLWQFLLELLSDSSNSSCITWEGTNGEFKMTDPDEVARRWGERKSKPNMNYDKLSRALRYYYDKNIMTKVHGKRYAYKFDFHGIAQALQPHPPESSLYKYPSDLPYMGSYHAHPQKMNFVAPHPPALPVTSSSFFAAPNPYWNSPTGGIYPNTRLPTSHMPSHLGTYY

Another test addresses ELF1 (UniProt P32519).
A further test has as its target T2, ELK4 (UniProt P28324-2).
T2 sequence: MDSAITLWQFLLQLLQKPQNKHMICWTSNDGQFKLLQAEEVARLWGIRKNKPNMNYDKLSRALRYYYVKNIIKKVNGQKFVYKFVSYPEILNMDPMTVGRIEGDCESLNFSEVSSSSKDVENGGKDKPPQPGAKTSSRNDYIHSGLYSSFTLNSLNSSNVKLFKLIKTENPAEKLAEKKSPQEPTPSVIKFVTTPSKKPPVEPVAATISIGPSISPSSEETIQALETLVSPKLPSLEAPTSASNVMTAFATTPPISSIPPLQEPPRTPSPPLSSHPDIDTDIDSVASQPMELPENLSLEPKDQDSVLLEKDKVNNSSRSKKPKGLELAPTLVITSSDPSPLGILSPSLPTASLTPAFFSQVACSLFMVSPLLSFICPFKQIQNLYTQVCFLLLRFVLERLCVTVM

For another test, the target named is T3, ETV4 (UniProt P43268).
T3 sequence: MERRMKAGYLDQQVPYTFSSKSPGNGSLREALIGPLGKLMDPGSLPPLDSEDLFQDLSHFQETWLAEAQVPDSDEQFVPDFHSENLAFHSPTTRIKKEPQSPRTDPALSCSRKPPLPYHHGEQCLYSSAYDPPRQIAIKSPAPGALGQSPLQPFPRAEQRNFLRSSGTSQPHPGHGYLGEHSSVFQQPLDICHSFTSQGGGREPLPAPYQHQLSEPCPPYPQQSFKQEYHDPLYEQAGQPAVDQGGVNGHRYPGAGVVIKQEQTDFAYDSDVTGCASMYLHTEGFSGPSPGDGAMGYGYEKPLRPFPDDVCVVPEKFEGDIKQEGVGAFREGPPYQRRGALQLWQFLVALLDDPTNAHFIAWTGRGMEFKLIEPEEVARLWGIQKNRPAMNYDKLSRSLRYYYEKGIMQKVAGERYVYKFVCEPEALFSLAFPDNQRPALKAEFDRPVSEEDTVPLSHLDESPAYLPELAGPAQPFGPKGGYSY

The next test addresses ETV1 (UniProt P50549).
The target in the next test is T4, ERF (UniProt P50548).
T4 sequence: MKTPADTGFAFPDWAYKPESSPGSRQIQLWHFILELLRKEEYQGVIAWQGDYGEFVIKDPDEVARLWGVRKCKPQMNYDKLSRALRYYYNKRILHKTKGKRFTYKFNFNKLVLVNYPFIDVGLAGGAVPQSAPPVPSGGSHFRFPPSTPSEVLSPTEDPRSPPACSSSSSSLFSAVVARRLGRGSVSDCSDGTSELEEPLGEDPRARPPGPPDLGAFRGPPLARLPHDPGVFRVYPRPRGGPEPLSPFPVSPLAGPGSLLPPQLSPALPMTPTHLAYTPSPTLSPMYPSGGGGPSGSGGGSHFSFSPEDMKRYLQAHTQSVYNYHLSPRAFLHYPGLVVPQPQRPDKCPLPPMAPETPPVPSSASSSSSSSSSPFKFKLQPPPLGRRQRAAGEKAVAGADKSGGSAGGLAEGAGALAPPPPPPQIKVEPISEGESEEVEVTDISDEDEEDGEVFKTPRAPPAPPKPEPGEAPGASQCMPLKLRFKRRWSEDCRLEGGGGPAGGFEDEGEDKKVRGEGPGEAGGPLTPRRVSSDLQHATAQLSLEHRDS

With GTCGCT, the binding signal with ERG stood at 0.76; with ELF1, 0.793; with ELK4 it was 0.782; in the test with ETV4, 0.774; in the test with ETV1 it was 0.868; in the test with ERF it was 0.862.
As for GCAGTG, the binding signal with ERG worked out at 0.575; in the test with ELF1 it was 0.57; with ELK4 it was 0.619; in the test with ETV4, 0.575; with ETV1, 0.589; with ERF it was 0.587.
Turning to GGTGCC, the binding signal came to 0.685 in the test with ERG; 0.758 with ELF1; 0.761 with ELK4; 0.706 with ETV4; 0.676 with ETV1; 0.691 in the test with ERF.
Regarding CCCAGT, the binding signal in the test with ERG was determined as 0.67; with ELF1, 0.622; with ELK4 it was 0.658; with ETV4, 0.656; with ETV1, 0.614; with ERF, 0.672.
GACTGT: the binding signal was found to be 0.436 in the test with ERG; 0.461 in the test with ELF1; 0.484 in the test with ELK4; 0.454 with ETV4; 0.433 in the test with ETV1; 0.417 with ERF.
In the case of TGGGAG, the binding signal with ERG worked out at 0.447; with ELF1, 0.439; with ELK4 it was 0.363; in the test with ETV4, 0.434; with ETV1, 0.507; with ERF, 0.479.
For the sequence CAGTGG, the binding signal is 0.506 in the test with ERG; 0.485 with ELF1; 0.498 in the test with ELK4; 0.485 with ETV4; 0.437 in the test with ETV1; 0.524 with ERF.
For GGCCGC, the binding signal worked out at 0.853 in the test with ERG; 0.867 with ELF1; 0.854 in the test with ELK4; 0.892 with ETV4; 0.799 in the test with ETV1; 0.807 with ERF.
For the sequence AGGCGG, the binding signal came out at 0.289 in the test with ERG; 0.237 in the test with ELF1; 0.24 with ELK4; 0.241 with ETV4; 0.26 with ETV1; 0.235 with ERF.
Consider TGGAGG, for which the binding signal with ERG worked out at 0.492; with ELF1, 0.426; with ELK4, 0.488; with ETV4, 0.441; with ETV1, 0.485; with ERF it was 0.514.
With AGTAGG, the binding signal with ERG is 0.675; with ELF1 it was 0.597; with ELK4 it was 0.585; with ETV4 it was 0.626; with ETV1, 0.688; with ERF, 0.631.
In the case of CTGAGA, the binding signal was found to be 0.802 with ERG; 0.877 with ELF1; 0.86 in the test with ELK4; 0.753 with ETV4; 0.736 in the test with ETV1; 0.759 with ERF.
In the case of CAGGCG, the binding signal in the test with ERG came to 0.297; in the test with ELF1, 0.249; in the test with ELK4 it was 0.248; with ETV4 it was 0.249; with ETV1 it was 0.263; in the test with ERF, 0.274.
In the case of GCGGAT, the binding signal with ERG was found to be 0.948; in the test with ELF1, 0.794; in the test with ELK4, 0.786; with ETV4 it was 0.883; with ETV1, 0.843; with ERF, 0.881.
In the case of GTGTCA, the binding signal with ERG was found to be 0.828; with ELF1 it was 0.851; with ELK4, 0.908; with ETV4, 0.807; with ETV1 it was 0.837; in the test with ERF, 0.818.
As to CACAGA, the binding signal with ERG was found to be 0.796; with ELF1, 0.916; with ELK4, 0.982; with ETV4, 0.86; in the test with ETV1 it was 0.828; with ERF, 0.877.
As to CATGAG, the binding signal is 0.657 with ERG; 0.683 with ELF1; 0.744 with ELK4; 0.695 in the test with ETV4; 0.676 in the test with ETV1; 0.702 with ERF.
Take AGCCGA: the binding signal in the test with ERG is 0.865; with ELF1, 0.816; in the test with ELK4 it was 0.817; in the test with ETV4 it was 0.832; with ETV1, 0.778; with ERF, 0.801.
For the sequence GCGAGC, the binding signal was 0.878 in the test with ERG; 0.953 with ELF1; 0.838 in the test with ELK4; 0.894 with ETV4; 0.923 with ETV1; 0.979 with ERF.
Turning to CAGCGG, the binding signal in the test with ERG worked out at 0.468; with ELF1, 0.445; in the test with ELK4, 0.49; with ETV4, 0.431; in the test with ETV1, 0.479; in the test with ERF, 0.425.
AGGGGG: the binding signal worked out at 0.664 with ERG; 0.594 in the test with ELF1; 0.572 with ELK4; 0.601 with ETV4; 0.64 with ETV1; 0.646 in the test with ERF.
Regarding CGGTGG, the binding signal with ERG turned out to be 0.641; with ELF1, 0.548; in the test with ELK4, 0.7; with ETV4, 0.591; with ETV1, 0.597; with ERF, 0.704.
As to GTGTGG, the binding signal with ERG was determined as 0.699; with ELF1, 0.618; with ELK4, 0.675; with ETV4, 0.637; in the test with ETV1, 0.701; with ERF, 0.593.
Regarding GTGCGA, the binding signal with ERG turned out to be 0.849; with ELF1, 0.829; with ELK4 it was 0.956; in the test with ETV4, 0.829; with ETV1 it was 0.927; in the test with ERF, 0.848.

The values are drawn from paper PMC7862700.
